The values that follow come from PMC4458873.

By UniProt entry, the sequences of proteins in these tests, tags left out.
UniProt P08670: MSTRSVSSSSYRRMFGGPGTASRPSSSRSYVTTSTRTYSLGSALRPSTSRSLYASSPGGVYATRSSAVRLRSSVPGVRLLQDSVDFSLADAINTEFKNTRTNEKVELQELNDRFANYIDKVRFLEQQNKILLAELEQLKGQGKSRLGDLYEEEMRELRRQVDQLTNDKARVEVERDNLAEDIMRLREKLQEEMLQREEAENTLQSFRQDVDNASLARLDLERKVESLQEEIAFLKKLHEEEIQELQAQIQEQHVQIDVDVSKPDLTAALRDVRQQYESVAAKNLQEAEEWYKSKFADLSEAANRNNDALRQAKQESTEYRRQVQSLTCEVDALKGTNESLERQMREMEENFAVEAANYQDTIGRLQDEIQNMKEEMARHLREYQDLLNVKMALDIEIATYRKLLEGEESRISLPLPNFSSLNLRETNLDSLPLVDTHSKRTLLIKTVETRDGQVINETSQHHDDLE

These are yes or no findings as the source states them, for the method shown. Binding seen in cells or lysates may run through a third protein. Some entries that bind do so weakly or less than the wild type.

The target in the test is Untagged vimentin wt expressed from the bicistronic RFP//vimentin wt plasmid (UniProt P08670). The experiment in a line: cross-linking; cells treated with vehicle or 100 μM dibromobimane (DBB) for 15 min, lysed, analysed by WB; where indicated vimentin immunoprecipitated with anti-vimentin V9 agarose.

Turning to “Untagged vimentin wt expressed from the bicistronic RFP//vimentin wt plasmid (from UniProt P08670 1-466)”, the binding entry was “binds”.
